In PubChem BioAssay AID493014 (National Center for Advancing Translational Sciences (NCATS), 2011):
This is one part of the list. Shown are side measurements of this screen, not its main read-out; they come without a call. Most of these compounds were active or inconclusive in the main read-out, so they are no random draw. The note in brackets gives the kind of curve behind each potency; many fits are weak.

Experiment: qHTS Assay to Find Inhibitors of Chronic Active B-Cell Receptor Signaling
Details: ABC-DLBCL IkBa-CBG/CBR reporter, luminescence ratio (green luciferase fused to IkBa over red control in TMD8 lymphoma cells), 4 h
Summary of the method: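 Cell line TMD8 (human ABC DLBCL), stably expressing tet-inducible CBG68-IkBa fusion and CBR; IMDM/0.5% FBS; cpd up to 46 uM; dox induction, 4 h, 37C/5% CO2; dual luminescence; green/red ratio; MG132 control.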

[1] = measured here: CBR red luminescence, cell number
[2] = measured here: IkBa-CBG green luminescence

Structure (SMILES) | AC50 [1] | AC50 [2]
O=C(O)c1ccc(-c2nc3ccccc3[nH]2)cc1 | 23.1 µM [falling, single point] | 
CN(C(=O)c1cccc(C#N)c1)c1nnc(-c2cnccn2)s1 | 0.517 µM [rising, partial curve, poor fit] | 
CC(C)c1nc(=S)n(-c2ccccc2)[nH]1 | 17.8 µM [rising, single point] | 
CCOC(=O)c1c(CC(C)C)csc1/N=C/C1C(=O)CCCC1=O | 8.91 µM [falling, partial curve, poor fit] | 
COC(=O)c1cc(Cl)c(NC(=O)c2cc(OC)c(OC)c(OC)c2)cc1OC | 6.51 µM [rising, full curve] | 
COc1ccc(/C=C2\CCc3ccccc3C2=O)c(OC)c1OC | 3.98 µM [rising, partial curve, poor fit] | 
C=CC(=O)Nc1cccc(Oc2ncnc3[nH]cc(-c4cnc5ccccc5c4)c23)c1 | 7.31 µM [falling, partial curve] | 
CCOC(=O)/C(=C\C=C\N1CCOCC1)C(C)=O | 3.98 µM [rising, full curve, poor fit] | 
Cc1ccc(NC(=O)Cn2c(O)c(N=NC(=O)c3cc([N+](=O)[O-])ccc3O)c3ccccc32)cc1 | 0.316 µM [falling, full curve] | 
COc1ccc(OC)c(S(=O)(=O)N2CCC3(CC2)OCCN3S(=O)(=O)c2ccccc2)c1 | 6.51 µM [rising, partial curve, poor fit] | 
CC(C)(C)OC(=O)C1=C(CO)CS[C@@H]2[C@H](NC(=O)Cc3ccccc3)C(=O)N12 | 32.6 µM [falling, partial curve, poor fit] | 
CCN(CC)c1ccc(/C=N/NC(=O)c2c(Cl)cnn2C)c(O)c1 | 7.31 µM [falling, partial curve, poor fit] | 
Oc1cccc(/C=N/c2c(-c3ccco3)nc3ccccn23)c1 | 28.2 µM [falling, partial curve, poor fit] | 
COc1ccc(-c2nnn(CC(=O)N3CCN(c4ccccc4OC)CC3)n2)cc1OC | 2.51 µM [rising, partial curve, poor fit] | 
CCCN(CC(=O)Nc1ccccc1OC)C(=O)CN1C(=O)NC2(CCCCC2)C1=O | 29.1 µM [rising, partial curve, poor fit] | 
Cc1c(C(=O)Nc2ccc(F)cc2)oc2ccc(S(=O)(=O)N3CCC4(CC3)OCCO4)cc12 | 10 µM [falling, partial curve] | 
CCOC(=O)C1(Cc2cccc(Cl)c2)CCCN(C(=O)c2ccc(C)nc2)C1 (stereo unspecified) | 35.5 µM [rising, single point] | 
COc1ccc(NS(=O)(=O)c2cccc(C(=O)NCC(c3ccc(OC)cc3)N3CCCC3)c2)cc1 (stereo unspecified) | 6.51 µM [falling, partial curve, poor fit] | 
O=C(Nc1nnc(C2CC2)s1)c1ccccn1 | 10 µM [falling, partial curve] | 
NC(=O)c1ccccc1NC(=O)c1ccc2ccccc2c1 | 25.1 µM [falling, single point] | 
Nc1ccccc1C(=O)N1CCc2ccccc21 | 12.6 µM [falling, partial curve] | 

Structure (SMILES) | AC50 [1] | AC50 [2]
CSc1ccc(/C=N\NC(=O)COc2ccc(Cl)cc2Br)cc1 | 3.16 µM [rising, full curve, poor fit] | 
CC(C)Oc1cccc(C(=O)NC(=S)Nc2cccnc2)c1 | 16.4 µM [falling, partial curve] | 
C/C=C/C(=O)N1CC2(CC(c3cccc(NC(=O)CC(c4ccccc4)c4ccccc4)c3)=NO2)C[C@H]1C(N)=O (stereo partly specified) | 1.58 µM [rising, partial curve] | 
O=C(O)CCc1ccc(-c2cccs2)n1Cc1ccco1 | 25.9 µM [rising, single point] | 
N[C@@H](Cc1ccccc1)c1nnc(SCc2ccccc2Cl)o1 |  | 29.1 µM [falling, single point]
CCCCCCN(C(=O)CCl)c1ccccc1 | 7.94 µM [falling, partial curve] | 
CCCCN1C(=O)C2Cc3c([nH]c4ccccc34)CN2C1=S (stereo unspecified) | 35.5 µM [falling, single point] | 
Cc1cc(C)nc(NC(=O)c2ccc(Cl)cc2)n1 | 5.62 µM [rising, single point] | 
Cc1ccc(-n2c(SCC(=O)OC(C)C)nnc2-c2cnccn2)cc1 | 35.5 µM [rising, single point] | 
CCc1nnc(NC(=O)CSc2nccn2-c2cccc(C)c2C)s1 | 22.4 µM [falling, single point] | 
Cc1cc(N2CCN(C)CC2)ccc1NC(=O)c1c2c(nc3ccccc13)CCN(Cc1ccccc1)C2 | 5.62 µM [falling, single point] | 
O=C(NCCc1ccncc1)C12CC3CC(CC(C3)C1)C2 | 29.1 µM [rising, single point] | 
C/C(Cl)=C\Cn1c(Nc2ccccc2)nc2c1c(=O)n(C)c(=O)n2C | 2.24 µM [falling, full curve, poor fit] | 
CC(OC(=O)c1ccc(NC(=O)CC#N)cc1)C(=O)Nc1ccc2c(c1)OCCO2 (stereo unspecified) | 23.1 µM [falling, partial curve, poor fit] | 
CCSC1=C(C#N)C(c2ccc(Cl)cc2)C2=C(CCCC2=O)N1 (stereo unspecified) | 18.4 µM [falling, single point] | 
CCCS(=O)(=O)N1CCC(C(=O)NCCN2CCCC2)CC1 | 0.146 µM [falling, full curve, poor fit] | 
CCOc1cc(/C=N\NC(N)=O)cc(Br)c1OC(C)C | 18.4 µM [rising, partial curve, poor fit] | 23.1 µM [falling, partial curve, poor fit]
Cc1ccc(/C=N/NC(=O)c2csc3c2CCCC3)cc1 | 2.24 µM [falling, partial curve] | 28.2 µM [falling, single point]
CCOC(=O)C1(CCOc2ccccc2)CCN(Cc2ccc(O)cc2)CC1 | 15.8 µM [falling, partial curve, poor fit] | 
CCCc1cc(=O)oc2c(C)c(OCC(=O)NCCN3CCOCC3)ccc12 | 25.1 µM [rising, single point] | 
COC(=O)c1ccc2c(=O)n(CCCCCC(=O)NCc3ccc(OC)cc3)c(=O)[nH]c2c1 | 1.26 µM [falling, partial curve, poor fit] | 

Structure (SMILES) | AC50 [1] | AC50 [2]
CNC(=O)C1C2C=CC3(O2)C1C(=O)N(C1CC1)C3C(=O)NCc1ccc(OC)cc1 (stereo unspecified) | 6.51 µM [rising, full curve, poor fit] | 
CC(C)COc1ccc(CNC(=S)N/N=C/c2ccc([N+](=O)[O-])cc2)cc1 | 29.1 µM [rising, partial curve, poor fit] | 
CN(CCOC(=O)/C=C/c1ccco1)Cc1ccccc1 | 3.98 µM [rising, single point] | 
O=C1NCCN/C1=C\C(=O)c1cccc(Br)c1 | 11.2 µM [falling, single point] | 
O=S(=O)(NCCc1csc2nc(-c3ccc(Cl)cc3)nn12)c1ccc2c(c1)OCCO2 | 3.55 µM [rising, full curve] | 
COc1ccc(OC)c(CN2CCC(CNC(=O)Nc3cccc(Cl)c3)CC2)c1 | 35.5 µM [falling, partial curve, poor fit] | 
CCCCC(=O)NC(Nc1nc(C2CC2)cs1)(C(=O)OCC)C(F)(F)F (stereo unspecified) | 35.5 µM [falling, partial curve, poor fit] | 
Cc1cccc(-c2noc(-c3c(C)noc3C)n2)c1 | 10 µM [rising, single point] | 
Cc1ccc(SCC(=O)Nc2cccc(C)c2)cc1 | 17.8 µM [falling, partial curve, poor fit] | 
COc1cc(/C=C/C(=O)OCC(=O)N2CCC(Cc3ccccc3)CC2)ccc1O | 23.1 µM [falling, single point] | 
O=C1c2ccsc2SCCN1Cc1cccc(Cl)c1 | 23.1 µM [falling, single point] | 
O=C1C=CC(=O)N1c1cccc(-c2ccccc2)c1 | 11.2 µM [falling, partial curve] | 
CC(=O)c1c(C)oc2ccc(NS(=O)(=O)c3cccs3)cc12 | 22.4 µM [falling, single point] | 
CCCc1nc2ccccc2c(C(=O)OCC(=O)Nc2cccc(S(=O)(=O)N3CCOCC3)c2)c1CC | 11.2 µM [falling, partial curve, poor fit] | 11.2 µM [rising, partial curve, poor fit]
O=C(NC1CCCCC1)N1CCCCCCC1 | 15.8 µM [falling, partial curve] | 31.6 µM [rising, partial curve, poor fit]
Cc1ccc(C(=O)N2CCN3C(=O)c4ccccc4C23c2ccc(Cl)cc2)cc1 (stereo unspecified) | 29.1 µM [falling, single point] | 
O=C(Cn1c(=O)oc2ccccc21)Nc1cccc(Cl)c1 | 5.62 µM [falling, partial curve] | 
CCOc1ccc(N=C2SC(C(=O)Nc3ccccc3C#N)C(N)=C2C(=O)Nc2ccc(Cl)cc2)cc1 (stereo unspecified) |  | 14.1 µM [rising, partial curve, poor fit]
Cc1cc2nc(-c3ccc(SCC(=O)Nc4ccc(S(=O)(=O)NC5CC5)cc4)nc3)[nH]c2cc1C | 1.84 µM [falling, partial curve] | 
CC1(C)CC(NS(=O)(=O)c2cccc3ccccc23)CC(C)(C)N1 | 0.0891 µM [rising, full curve, poor fit] | 

Filtered by structure, those above with an NH in an aromatic ring.
Structure (SMILES) | AC50 [1] | AC50 [2]
O=C(O)c1ccc(-c2nc3ccccc3[nH]2)cc1 | 23.1 µM [falling, single point] | 
CC(C)c1nc(=S)n(-c2ccccc2)[nH]1 | 17.8 µM [rising, single point] | 
C=CC(=O)Nc1cccc(Oc2ncnc3[nH]cc(-c4cnc5ccccc5c4)c23)c1 | 7.31 µM [falling, partial curve] | 
CCCCN1C(=O)C2Cc3c([nH]c4ccccc34)CN2C1=S (stereo unspecified) | 35.5 µM [falling, single point] | 
COC(=O)c1ccc2c(=O)n(CCCCCC(=O)NCc3ccc(OC)cc3)c(=O)[nH]c2c1 | 1.26 µM [falling, partial curve, poor fit] | 
Cc1cc2nc(-c3ccc(SCC(=O)Nc4ccc(S(=O)(=O)NC5CC5)cc4)nc3)[nH]c2cc1C | 1.84 µM [falling, partial curve] | 

2 successive compounds out of the list so far, for reference:
Structure (SMILES) | AC50 [1] | AC50 [2]
O=S(=O)(NCCc1csc2nc(-c3ccc(Cl)cc3)nn12)c1ccc2c(c1)OCCO2 | 3.55 µM [rising, full curve] | 
COc1ccc(OC)c(CN2CCC(CNC(=O)Nc3cccc(Cl)c3)CC2)c1 | 35.5 µM [falling, partial curve, poor fit] | 
